# From PubChem BioAssay AID624291 (National Center for Advancing Translational Sciences (NCATS), 2012)
# Hit rate of the full screen: of about 350,000 compounds, about 220 (0.063%) were called active. The shares of active, inactive and inconclusive entries below differ from those in the screen. The call rests on the fitted dose curve; in most records, active means well fitted activation curve with a large enough effect; inconclusive means small, poorly fitted or top-dose-only effect; inactive means no such curve, though single readings can be large or run the other way. Where the call is inconclusive, the potency comes from a doubtful curve fit.
# Experiment: qHTS for Activators of Integrin-Mediated Alleviation for Muscular Dystrophy; further: nearly all actives have a fitted effect of over 60% in size
# Settings: alpha7betagal myoblasts, beta-gal FDG fluorescence, 48 h; series mostly up to 38.3 µM
# Summary of the method: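 Alpha7betagal+/- myoblasts (passage 13) were plated 16-24 hr, then exposed to compounds (1:260 dilution of DMSO stock) for 48 hours at 37C. After MPER lysis, β-galactosidase reporter activity was read as FDG fluorescence (ex 480/em 540) after 30 minutes.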
# Potency means the concentration at half of the fitted maximal effect.
row,SMILES,Potency
1,c1ccc(OCc2nnc(-c3ccccc3)o2)cc1,inactive
2,Cc1ccc(-n2c(SCC(=O)N3Cc4ccccc4CC3C(=O)O)nnc2-c2cccnc2)c(C)c1 (stereo unspecified),"inconclusive: 0.398 µM [activator, partial curve, poor fit]"
3,O=S(=O)(Nc1ncccn1)c1ccc(NC(=S)N2CCN(Cc3ccc(F)cc3Cl)CC2)cc1,"inconclusive: 10 µM [activator, partial curve, poor fit]"
4,CC(=O)NC1=NN(C(C)=O)C(c2ccco2)S1 (stereo unspecified),inactive
5,Cc1ccccc1-c1nnc(SCC(=O)NCC2CCCO2)o1 (stereo unspecified),"inconclusive: 3.55 µM [activator, partial curve, poor fit]"
6,O=C(COc1ccccc1[N+](=O)[O-])Nc1ccc(Br)cc1,"inconclusive: 2 µM [activator, partial curve, poor fit]"
7,Cc1cccc(Nc2c(-c3ccc(O)cc3)nc3ncccn23)c1,"inconclusive: 3.16 µM [activator, single point]"
8,Cc1ccc2c(c1)sc(=NC(=O)C1CC1)n2C,inactive
9,COc1ccc(/C=N/NC(=O)c2ccncc2)cc1[N+](=O)[O-],inactive
10,CCOc1ccc(Cl)cc1S(=O)(=O)N1CCC(C(=O)NCc2ccccn2)CC1,"inconclusive: 22.4 µM [activator, single point]"
11,CCCc1nc(-c2cc3cc(C)ccc3[nH]c2=O)no1,"inconclusive: 22.4 µM [activator, single point]"
12,COc1ccc(-c2nc3c(n2O)CCc2c-3no[n+]2[O-])cc1,"inconclusive: 11.2 µM [activator, single point]"
13,Cc1noc(C)c1CSCC(=O)N(C)CC(=O)Nc1ccccc1Cl,inactive
14,CCN(CC)C(=O)c1sc(NC(=O)C(C)C)c(C#N)c1C,"inconclusive: 17.8 µM [activator, partial curve, poor fit]"
15,O=C(N=Nc1c(O)[nH]c2ccccc12)c1cccc(S(=O)(=O)Nc2ccccc2Cl)c1,"inconclusive: 28.2 µM [activator, single point]"
16,C=CCOc1ccc(C=CC(=O)c2c(O)c(OC)c(OC)c(OC)c2OC)cc1,inactive
17,CN(C)c1ccc(NC(=O)C2C3C=CC(C3)C2C(=O)O)cc1 (stereo unspecified),inactive
18,Cc1ccccc1OC(=O)c1cccnc1,"inconclusive: 10 µM [activator, single point]"
19,O=C(Nc1ccc(Cl)cc1)C1CCCN(c2cnccn2)C1 (stereo unspecified),"inconclusive: 12.6 µM [activator, single point]"
20,Cc1c(CN(C)C)c2c(n1C)C(=O)c1ccc(Br)cc1-2,inactive
21,CCOC(=O)Cc1csc(NS(=O)(=O)c2ccc(OC)cc2)n1,"inconclusive: 5.01 µM [activator, single point]"
22,CCOC(=O)CNC(=O)COc1coc(CN2CCN(c3ccccc3)CC2)cc1=O,"inconclusive: 31.6 µM [activator, partial curve, poor fit]"
23,CN1C[C@@H]2C[C@@H](c3ccc(C#CC(C)(C)O)s3)N3CCC[C@@]23C1=O,"inconclusive: 5.01 µM [activator, single point]"

row,SMILES,Potency
1,Cc1noc(C)c1CSCC(=O)N(C)CC(=O)Nc1ccccc1Br,"inconclusive: 8.91 µM [activator, partial curve, poor fit]"
2,Cc1cc(NC(=O)Cn2c(=O)oc3ccccc32)no1,"inconclusive: 14.1 µM [activator, single point]"
3,CCCn1cc(S(=O)(=O)c2ccc(OC)cc2)c(=O)c2cc(OCC)ccc21,"inconclusive: 10 µM [activator, single point]"
4,CCOc1ccc(NC(=S)N(Cc2ccc(N(C)C)cc2)Cc2ccco2)cc1,inactive
5,CC(NC(=O)CN(C)Cc1cccc(Cl)c1)c1ccccc1 (stereo unspecified),inactive
6,COc1cc(Nc2ccc(C(=O)O)cc2[N+](=O)[O-])cc(OC)c1,"inconclusive: 28.2 µM [activator, single point]"
7,CC1(C(=O)OCC(=O)Nc2nc(-c3ccc(F)c(F)c3)cs2)CC1(Cl)Cl (stereo unspecified),inactive
8,CCN1CCC(NC(=O)Nc2ccccc2C(=O)OC)CC1,"inconclusive: 6.31 µM [activator, partial curve, poor fit]"
9,Nc1ccc(-c2nc3cc(N)ccc3o2)cc1,"inconclusive: 3.16 µM [activator, partial curve, poor fit]"
10,Cc1csc(NC(=O)CCCC(=O)c2ccccc2)n1,"inconclusive: 3.16 µM [activator, full curve, poor fit]"
11,Cc1nc(-c2cc(-c3nc(-c4ccc(C(F)(F)F)cc4)no3)no2)cs1,inactive
12,Cc1cc(NC(=O)CSc2n[nH]c(-c3ccccc3Br)n2)no1,"inconclusive: 5.01 µM [activator, partial curve, poor fit]"
13,CS(=O)(=O)c1ccc2nc(NC(=O)c3cccc([N+](=O)[O-])c3)sc2c1,"inconclusive: 28.2 µM [activator, single point]"
14,CCCc1nnc(SCC(=O)Nc2nccs2)o1,"inconclusive: 11.2 µM [activator, partial curve, poor fit]"
15,CCOC(=O)C1CCN(CCC(=O)Nc2ccc(Br)cc2)CC1,inactive
16,O=C(N/N=C/c1ccc(Br)s1)c1c[nH]c2ccccc12,inactive
17,COc1ccc(CC(=O)N(C)CC(=O)Nc2ccccc2SC)cc1,"inconclusive: 3.16 µM [activator, single point]"
18,Cc1nc(N2CCN(c3ccccn3)CC2)c2c(C)c(C(=O)N3CCN(c4ccccc4F)CC3)sc2n1,"inconclusive: 11.2 µM [activator, partial curve, poor fit]"
19,COc1cc2c(cc1OC)CN(C(=O)c1cccs1)CC2,inactive
20,COc1cc(/C=C2/C(=N)N3C(SC)=NSC3=NC2=O)ccc1OC(=O)c1ccco1,active: 3.98 µM
21,Cc1ccc(OCCCN2CCOCC2)c([N+](=O)[O-])c1,inactive
22,COc1ccc(OC)c(C2C(C(=O)c3sc(C)nc3C)=C(O)C(=O)N2CCN2CCOCC2)c1 (stereo unspecified),inactive
23,COC(=O)c1ccc(C(=O)N2CCCC(CNC(=O)c3ccc(F)cc3)C2)cc1 (stereo unspecified),inactive

# 10 of these compounds in a different format:
row	SMILES	Potency
2	Cc1cc(NC(=O)Cn2c(=O)oc3ccccc32)no1	inconclusive: 14.1 µM [activator, single point]
5	CC(NC(=O)CN(C)Cc1cccc(Cl)c1)c1ccccc1 (stereo unspecified)	inactive
6	COc1cc(Nc2ccc(C(=O)O)cc2[N+](=O)[O-])cc(OC)c1	inconclusive: 28.2 µM [activator, single point]
11	Cc1nc(-c2cc(-c3nc(-c4ccc(C(F)(F)F)cc4)no3)no2)cs1	inactive
12	Cc1cc(NC(=O)CSc2n[nH]c(-c3ccccc3Br)n2)no1	inconclusive: 5.01 µM [activator, partial curve, poor fit]
14	CCCc1nnc(SCC(=O)Nc2nccs2)o1	inconclusive: 11.2 µM [activator, partial curve, poor fit]
15	CCOC(=O)C1CCN(CCC(=O)Nc2ccc(Br)cc2)CC1	inactive
19	COc1cc2c(cc1OC)CN(C(=O)c1cccs1)CC2	inactive
21	Cc1ccc(OCCCN2CCOCC2)c([N+](=O)[O-])c1	inactive
22	COc1ccc(OC)c(C2C(C(=O)c3sc(C)nc3C)=C(O)C(=O)N2CCN2CCOCC2)c1 (stereo unspecified)	inactive
